PubChem BioAssay AID1259405, NCATS, 2018
Purpose: 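Knock-downs that lift recombinant protein yield in hamster ovary cells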 (primary screen). Cell system: Chinese hamster CHO-K1 ovary cells with stable secreted eGFP expression. Reagent: single siRNA against mouse genes, 0.8 pmol siRNA per well (2 µl of 400 nM stock). Time to read-out: 3 days. Measured: 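Percent of the per-plate non-targeting control median for intracellular GFP per well by laser scanning cytometry and for cell viability by ATP luminescence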. Scale: GFP, % of control: higher = more GFP per well, higher productivity; viability (ATP), % of control: higher = more viable cells (more ATP). Rule for the call: 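Called active when intracellular GFP, relative to negative control, is at or above 120%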.
In all, the deposit lists about 50,000 reagents; below is a random part of them. In the full data, about 4,000 (8%) were called active. 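Mouse siRNA library applied to hamster cells; one well for each siRNA.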 The numbers tell different reagents against one gene apart.

gene knocked down | reagent no. | GFP, % of control | viability (ATP), % of control | outcome
Ift80 | 1 | 120 | 67.8 | active
Ift80 | 2 | 69.3 | 69.1 | inactive
Ift80 | 3 | 73.4 | 64.4 | inactive
Tmprss7 | 1 | 57.4 | 79 | inactive
Tmprss7 | 2 | 50.2 | 51.9 | inactive
Tmprss7 | 3 | 82.4 | 77.2 | inactive
Or52e19b | 1 | 28.5 | 42.1 | inactive
Or52e19b | 2 | 89.3 | 72.8 | inactive
Or52e19b | 3 | 49.4 | 76.6 | inactive
Inha | 1 | 52.7 | 56.6 | inactive
Inha | 2 | 85.9 | 105 | inactive
Inha | 3 | 101 | 136 | inactive

No new results follow: an excerpt of the list.
gene knocked down | reagent no. | GFP, % of control | viability (ATP), % of control | outcome
Or52e19b | 2 | 89.3 | 72.8 | inactive
Or52e19b | 3 | 49.4 | 76.6 | inactive
Inha | 1 | 52.7 | 56.6 | inactive
Inha | 2 | 85.9 | 105 | inactive
Inha | 3 | 101 | 136 | inactive

Next reagents follow:
gene knocked down | reagent no. | GFP, % of control | viability (ATP), % of control | outcome
Cpne6 | 1 | 91.4 | 106 | inactive
Cpne6 | 2 | 87.5 | 59 | inactive
Cpne6 | 3 | 160 | 84.1 | active
Rbm12 | 1 | 81.6 | 50.8 | inactive
Rbm12 | 2 | 88.7 | 76.6 | inactive
Rbm12 | 3 | 100 | 77.8 | inactive
Gimap6 | 1 | 95.9 | 104 | inactive
Gimap6 | 2 | 108 | 64.3 | inactive
Gimap6 | 3 | 66.2 | 62.9 | inactive
Tcp10a | 1 | 50.1 | 66 | inactive
Tcp10a | 2 | 94.1 | 113 | inactive
Tcp10a | 3 | 26.4 | 42.3 | inactive
Stk4 | 1 | 127 | 104 | active
Stk4 | 2 | 63.5 | 49.6 | inactive
Stk4 | 3 | 48.9 | 70.1 | inactive
Adss1 | 1 | 40.9 | 64.2 | inactive
Adss1 | 2 | 74.1 | 90.5 | inactive
Adss1 | 3 | 101 | 85.1 | inactive
Rhox3a | 1 | 82.1 | 46.9 | inactive
Rhox3a | 2 | 115 | 114 | inactive
Rhox3a | 3 | 63.3 | 19.2 | inactive
Rnf44 | 1 | 130 | 103 | active
Rnf44 | 2 | 65.7 | 66.9 | inactive
Rnf44 | 3 | 70.3 | 67.1 | inactive
